# Source: PMC6066751
# Protein sequences, listed by entry. Tags and fused reporters are not part of them.
# UniProt Q8C3P7: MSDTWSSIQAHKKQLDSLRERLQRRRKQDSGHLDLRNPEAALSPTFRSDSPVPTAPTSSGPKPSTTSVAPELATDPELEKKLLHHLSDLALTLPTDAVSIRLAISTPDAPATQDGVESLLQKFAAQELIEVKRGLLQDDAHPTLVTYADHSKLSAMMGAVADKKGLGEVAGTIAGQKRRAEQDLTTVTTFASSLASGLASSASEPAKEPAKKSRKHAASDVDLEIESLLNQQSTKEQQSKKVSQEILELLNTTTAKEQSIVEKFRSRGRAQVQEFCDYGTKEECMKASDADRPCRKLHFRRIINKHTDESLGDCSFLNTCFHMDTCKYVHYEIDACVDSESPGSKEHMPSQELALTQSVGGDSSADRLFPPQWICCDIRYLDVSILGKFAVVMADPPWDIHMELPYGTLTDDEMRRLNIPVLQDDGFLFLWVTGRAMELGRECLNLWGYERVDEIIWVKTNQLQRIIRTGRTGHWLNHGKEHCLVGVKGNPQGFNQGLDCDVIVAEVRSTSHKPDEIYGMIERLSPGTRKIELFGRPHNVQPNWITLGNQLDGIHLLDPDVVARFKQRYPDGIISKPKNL
# These are yes or no findings as the source states them, for the method shown. Binding seen in cells or lysates may run through a third protein. Some results given as binding are weak or reduced against the parent protein; the word gives no strength. Sequences can lack the tags named with a protein.
# B1: FLAG-METTL14 (methyltransferase like 14) (protein, UniProt Q3UIK4 1-456)
# chain: MDSRLQEIRERQKLRRQLLAQQLGAESADSIGAVLNSKDEQREIAETRETCRASYDTSAPNSKRKCLDEGETDEDKVEEYKDELEMQQEEENLPYEEEIYKDSSTFLKGTQSLNPHNDYCQHFVDTGHRPQNFIRDVGLADRFEEYPKLRELIRLKDELIAKSNTPPMYLQADIEAFDIRELTPKFDVILLEPPLEEYYRETGITANEKCWTWDDIMKLEIDEIAAPRSFIFLWCGSGEGLDLGRVCLRKWGYRRCEDICWIKTNKNNPGKTKTLDPKAVFQRTKEHCLMGIKGTVKRSTDGDFIHANVDIDLIITEEPEIGNIEKPVEIFHIIEHFCLGRRRLHLFGRDSTIRPGWLTVGPTLTNSNYNAETYASYFSAPNSYLTGCTEEIERLRPKSPPPKSKSDRGGGAPRGGGRGGTSAGRGRERNRSNFRGERGGFRGGRGGTHRGGFTPR
# Target: T1, GST-fused full-length WTAP (Wilms' tumor 1-associating protein) (mouse) (UniProt Q9ER69)
# T1 sequence: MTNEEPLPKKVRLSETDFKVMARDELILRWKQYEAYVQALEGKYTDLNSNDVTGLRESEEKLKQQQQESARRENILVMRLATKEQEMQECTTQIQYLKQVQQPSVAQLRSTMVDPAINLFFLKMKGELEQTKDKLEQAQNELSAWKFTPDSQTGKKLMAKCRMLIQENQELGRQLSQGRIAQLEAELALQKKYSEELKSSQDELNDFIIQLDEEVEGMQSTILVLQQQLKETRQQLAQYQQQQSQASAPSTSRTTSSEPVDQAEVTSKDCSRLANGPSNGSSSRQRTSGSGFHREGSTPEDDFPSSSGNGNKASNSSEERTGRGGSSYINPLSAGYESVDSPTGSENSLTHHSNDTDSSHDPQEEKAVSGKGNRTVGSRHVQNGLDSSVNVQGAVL
# Experiment: pull-down; GST-WTAP (bait) immobilized on glutathione-Sepharose 4B, incubated with lysates of COS cells transfected with FLAG-METTL3 or FLAG-METTL14 (prey); 0.02% NP-40 in lysis, binding and washing buffers; eluted with 10 mg/ml reduced glutathione; Western blot with anti-METTL3, anti-METTL14 and anti-FLAG M2; only the target purified
row,Molecule,binding
1,FLAG-METTL3 (methyltransferase like 3) (from UniProt Q8C3P7 1-580),binds
2,B1,binds
